Assay: Feed consumption: dose achieved in treatment groups based on uneaten feed (in-feed treatment)
Assay type: in vivo, Atlantic salmon
Details: for food-uptake (suitability for in-feed treatment of salmon): at medium and higher concentrations of added active ingredient in the food; for % of target dose achieved: based on uneaten feed
[1] = nominal dose 1 mg/kg/day in feed for seven days
[2] = nominal dose 5 mg/kg/day in feed for seven days
[3] = nominal dose 10 mg/kg/day in feed for seven days

C/C(=N\C#N)N(C)Cc1ccc(Cl)nc1 [Acetamiprid, acetamiprid]
food-uptake (suitability for in-feed treatment of salmon): reduced to an unacceptable level | % of target dose achieved [1]: 98% | % of target dose achieved [2]: 62% | % of target dose achieved [3]: 38%

CN/C(=N\[N+](=O)[O-])NCc1cnc(Cl)s1 [Clothianidin, (E)-1-(2-Chlor-1,3-thiazol-5-ylmethyl)-3-methyl-2-nitroguanidin]
% of target dose achieved [1]: 99% | % of target dose achieved [2]: 98% | % of target dose achieved [3]: 97%

O=[N+]([O-])NC1=NCCN1Cc1ccc(Cl)nc1 [Imidacloprid, imidacloprid]
food-uptake (suitability for in-feed treatment of salmon): reduced to an unacceptable level | % of target dose achieved [1]: 100% | % of target dose achieved [2]: 77% | % of target dose achieved [3]: 33%

CCN(Cc1ccc(Cl)nc1)/C(=C/[N+](=O)[O-])NC [Nitenpyram, nitenpyram]
% of target dose achieved [1]: 108% | % of target dose achieved [2]: 96% | % of target dose achieved [3]: 92%

— patent US20150272931A1, “New Treatment” (priority 2012, published 2015)
